In PubChem BioAssay AID651558 (National Center for Advancing Translational Sciences (NCATS), 2012):
Out of some 1,200 compounds screened, about 480 (40%) were called active. The inconclusive results got no clear call from the source; some entries with a clear call stand among them for comparison. Calls follow the shape of the dose curve; as a rule, active = well fitted inhibition curve with a large enough effect; inconclusive = small, poorly fitted or top-dose-only effect; inactive = no such curve, though single readings can be large or run the other way. Where the call is inconclusive, the potency comes from a doubtful curve fit.

experiment: qHTS Assay to Find Inhibitors of Chronic Active B-Cell Receptor Signaling: Hit Validation in Primary Screen; conditions: ABC-DLBCL IkB-luc/CBR ratio luminescence, 4 h; series mostly up to 46.1 µM; activity change, negative = inhibition: at the top concentration; also: nearly all actives have a fitted effect of over 75% in size
Summary of the method: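 Concentration series (3 nM to 46 uM) tested on TMD8 cells induced with doxycycline for 4 h. Filter-corrected green (IkBa fusion) over red (unfused) luciferase signal; Data were normalised to 10 uM MG-132 and untreated cell wells.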
% is scaled to controls: 0 for no effect and ±100 for the full control effect; potency is read from the fitted curve at half-maximal effect.

SMILES	Potency	activity change, negative = inhibition
Cc1ccccc1NC(=S)NCc1ccc2[nH]c3c(c2c1)CCCC3	inconclusive: 20.6 µM [inhibitor, single point]	
COc1ccc(OCCOC(=O)c2[nH]c(C)c(C(C)=O)c2C)cc1	inconclusive: 14.6 µM [inhibitor, partial curve]	
CCOC(=O)C(C)Oc1cccc2c(=O)n(CC(=O)NCc3ccco3)ccc12 (configuration not stated)	active: 18.4 µM	
CC(C)c1ccc(/C=N/NC(=O)c2ccccc2Cl)cc1	active: 20.6 µM	
Cc1ccc(NC(=S)N/N=C/c2c(Cl)cccc2Cl)c(C)c1	inconclusive: 2.31 µM [inhibitor, full curve]	
COc1cc(C(=O)NNC(=S)Nc2ccc(S(N)(=O)=O)cc2)cc(OC)c1OC		inactive: -2.88%
CCCC(=O)Nc1ncnc2c1ncn2[C@@H]1O[C@@H]2COP(=O)(O)O[C@H]2[C@H]1OC(=O)CCC		inactive: -15.4%
CC(C)(CNC(=O)CO/N=C1/C=C2CCC3C(C(O)C[C@@]4(C)C3CC[C@]4(O)C(=O)CO)[C@@]2(C)CC1)C(O)C(=O)O (some centres not stated)	inconclusive: 5.8 µM [inhibitor, partial curve]	
CNC(=S)N/N=C(\C)c1cccc([N+](=O)[O-])c1		inactive: 36%
N#CCSc1nc(N)c(C#N)c(C2CCCCC2)c1C#N		inactive: -9.34%
CC[C@]12c3[nH]c4cc(CCC(=O)N(C)C)ccc4c3CCN1C(=O)[C@@H](CC(=O)NCC13CC4CC(CC(C4)C1)C3)C[C@@H]2C(=O)N1CCN(C(=O)c2ccco2)CC1	inconclusive: 20.6 µM [inhibitor, partial curve]	
O=C(CSc1cccc[n+]1[O-])c1ccccc1Br		inactive: -17.2%
COc1ccccc1-c1nnc(Nc2nc3c(OC)cccc3s2)o1	active: 0.366 µM	
CCOC(=O)c1c(C)oc2c1cc(NS(=O)(=O)c1ccc(C(=O)O)cc1)c1ccccc12	inconclusive: 25.9 µM [inhibitor, partial curve, poor fit]	
CCN(CC)C(=S)NC(=O)c1ccc(F)cc1		inactive: -2.9%
COc1cc(C(=O)N/N=C/c2sccc2C)cc(OC)c1OC	active: 1.46 µM	
COc1ccc(CCNC(=O)c2cnc3scc(C)n3c2=O)cc1OC	inconclusive: 18.4 µM [inhibitor, partial curve, poor fit]	
CCCCC[C@H](O)/C=C/[C@@H]1[C@@H](C/C=C\CCCC(=O)O)[C@@H](O)C[C@H]1O	active: 2.91 µM	
COc1cc(/C=C2/S/C(=N/S(=O)(=O)c3ccccc3)NC2=O)c([N+](=O)[O-])cc1OC	inconclusive: 16.4 µM [inhibitor, partial curve]	
CC1=C/C(=N\NC(=S)NCc2ccccc2)CC1		inactive: -7.8%
S=C(Nc1ccccn1)c1ccccn1	inconclusive: 25.9 µM [inhibitor, partial curve, poor fit]	
COc1cc(/C=C/c2ccc3cccc(O)c3n2)cc(OC)c1OC	active: 18.4 µM	
CCOc1ccccc1N1CSC2=C(C#N)C(c3c(OC)ccc4ccccc34)CC(=O)N2C1 (configuration not stated)		inactive: -10.4%
Cc1c(CCC(=O)N2CCC(C(=O)O)(c3ccccc3)CC2)c(=O)oc2cc3oc4c(c3cc12)CCCC4		inactive: -14.9%

SMILES	Potency	activity change, negative = inhibition
CCCNC(=O)c1ccc(-c2nn(C)c(=O)c3ccccc23)cc1	inconclusive: 16.4 µM [inhibitor, partial curve]	
COCCN(Cc1cc2cc(C)cc(C)c2nc1Cl)C(=O)Nc1ccccc1	inconclusive: 14.6 µM [inhibitor, single point]	
O=c1c2cc(F)ccc2sn1-c1ccccc1	inconclusive: 18.4 µM [inhibitor, partial curve, poor fit]	
NC(=O)c1c(NC(=O)CSc2nc(N)cc(=O)[nH]2)sc2c1CCCC2	active: 9.2 µM	
CCOc1cc(/C=C(/C#N)C(=O)Nc2ccc(O)cc2)cc(Br)c1O	active: 2.06 µM	
Cn1c(=O)n(Cc2ccccc2Cl)c2ccccc21	inconclusive: 16.4 µM [inhibitor, partial curve]	
Cc1ccc(C#N)c(SCc2ccccc2[N+](=O)[O-])n1	inconclusive: 8.2 µM [inhibitor, partial curve]	
CC(NC(=O)c1ccc(S(=O)(=O)NCc2ccco2)cc1)c1ccc(F)cc1 (configuration not stated)		inactive: -8.65%
COC(=O)C1=CN(Cc2ccc(OC)c(OC)c2)C=C(C(=O)OC)C1c1cccc(O)c1	inconclusive: 3.26 µM [inhibitor, full curve]	
COc1ccccc1NC(=O)Cn1nnc(C(=O)NCc2cccs2)c1N	inconclusive: 8.2 µM [inhibitor, partial curve]	
N#CC1=C(S)N(c2ccc(F)cc2)C(c2ccco2)NC1=O (configuration not stated)		inactive: 46.1%
Cc1ccc(NS(=O)(=O)c2ccc(-c3cnc(C4CC4)o3)cc2)c(C)c1	active: 3.26 µM	
O=C(Cc1ccc(-n2c(=O)c3ccccc3n(Cc3ccccc3Cl)c2=O)cc1)NCC1CCCO1 (configuration not stated)	active: 2.59 µM	
CCC(C)N(C(=O)COC(=O)c1cc([N+](=O)[O-])ccc1N1CCOCC1)C1CCS(=O)(=O)C1 (configuration not stated)	inconclusive: 18.4 µM [inhibitor, partial curve, poor fit]	
Cc1ccc(S(=O)(=O)N2CCN(C(=O)CSc3n[nH]c(N)n3)CC2)c(C)c1		inactive: -6.01%
COc1ccc(/C=N/NC(=O)c2[nH]nc3c2CCc2ccccc2-3)cc1OC	inconclusive: 2.91 µM [inhibitor, full curve]	
COc1ccc(/C=C/C(=O)Nc2cc(S(=O)(=O)N3CCOCC3)ccc2OC)cc1	inconclusive: 18.4 µM [inhibitor, partial curve, poor fit]	
CNC(=S)N/N=C(\C)c1ccc(Cl)c(Cl)c1		inactive: -22%
COc1ccc(/C=N\NC(=O)c2c(C)nc3ccc(Br)cn23)cc1		inactive: 30.1%
Nc1cc(=O)[nH]c(SCC(=O)Nc2cc(Cl)cc(Cl)c2)n1	inconclusive: 7.31 µM [inhibitor, partial curve]	
C[C@]12C=CC(=O)C=C1CC[C@@H]1[C@@H]2[C@@H](O)C[C@@]2(C)[C@H]1CC[C@]2(O)C(=O)COC(=O)CCC(=O)O	inconclusive: 0.411 µM [inhibitor, full curve]	
COc1cc(C2C(C#N)=C(N)Oc3cc(N)ccc32)cc(OC)c1OC (configuration not stated)	inconclusive: 2.31 µM [inhibitor, full curve]	
Cc1cc(=O)oc2cc(OCC3CC(c4ccccc4Cl)=NO3)ccc12 (configuration not stated)	active: 2.59 µM	
CCOc1cc(C(=O)N(C)CC(=O)Nc2cccc3ccccc23)ccc1OC	inconclusive: 10.3 µM [inhibitor, partial curve, poor fit]	

Another view of 22 compounds above.
SMILES | Potency | activity change, negative = inhibition
Cc1c(CCC(=O)N2CCC(C(=O)O)(c3ccccc3)CC2)c(=O)oc2cc3oc4c(c3cc12)CCCC4 |  | inactive: -14.9%
CCCNC(=O)c1ccc(-c2nn(C)c(=O)c3ccccc23)cc1 | inconclusive: 16.4 µM [inhibitor, partial curve] | 
COCCN(Cc1cc2cc(C)cc(C)c2nc1Cl)C(=O)Nc1ccccc1 | inconclusive: 14.6 µM [inhibitor, single point] | 
O=c1c2cc(F)ccc2sn1-c1ccccc1 | inconclusive: 18.4 µM [inhibitor, partial curve, poor fit] | 
NC(=O)c1c(NC(=O)CSc2nc(N)cc(=O)[nH]2)sc2c1CCCC2 | active: 9.2 µM | 
CCOc1cc(/C=C(/C#N)C(=O)Nc2ccc(O)cc2)cc(Br)c1O | active: 2.06 µM | 
Cn1c(=O)n(Cc2ccccc2Cl)c2ccccc21 | inconclusive: 16.4 µM [inhibitor, partial curve] | 
Cc1ccc(C#N)c(SCc2ccccc2[N+](=O)[O-])n1 | inconclusive: 8.2 µM [inhibitor, partial curve] | 
CC(NC(=O)c1ccc(S(=O)(=O)NCc2ccco2)cc1)c1ccc(F)cc1 (configuration not stated) |  | inactive: -8.65%
COC(=O)C1=CN(Cc2ccc(OC)c(OC)c2)C=C(C(=O)OC)C1c1cccc(O)c1 | inconclusive: 3.26 µM [inhibitor, full curve] | 
COc1ccccc1NC(=O)Cn1nnc(C(=O)NCc2cccs2)c1N | inconclusive: 8.2 µM [inhibitor, partial curve] | 
N#CC1=C(S)N(c2ccc(F)cc2)C(c2ccco2)NC1=O (configuration not stated) |  | inactive: 46.1%
Cc1ccc(NS(=O)(=O)c2ccc(-c3cnc(C4CC4)o3)cc2)c(C)c1 | active: 3.26 µM | 
O=C(Cc1ccc(-n2c(=O)c3ccccc3n(Cc3ccccc3Cl)c2=O)cc1)NCC1CCCO1 (configuration not stated) | active: 2.59 µM | 
CCC(C)N(C(=O)COC(=O)c1cc([N+](=O)[O-])ccc1N1CCOCC1)C1CCS(=O)(=O)C1 (configuration not stated) | inconclusive: 18.4 µM [inhibitor, partial curve, poor fit] | 
Cc1ccc(S(=O)(=O)N2CCN(C(=O)CSc3n[nH]c(N)n3)CC2)c(C)c1 |  | inactive: -6.01%
COc1ccc(/C=N/NC(=O)c2[nH]nc3c2CCc2ccccc2-3)cc1OC | inconclusive: 2.91 µM [inhibitor, full curve] | 
COc1ccc(/C=C/C(=O)Nc2cc(S(=O)(=O)N3CCOCC3)ccc2OC)cc1 | inconclusive: 18.4 µM [inhibitor, partial curve, poor fit] | 
CNC(=S)N/N=C(\C)c1ccc(Cl)c(Cl)c1 |  | inactive: -22%
COc1ccc(/C=N\NC(=O)c2c(C)nc3ccc(Br)cn23)cc1 |  | inactive: 30.1%
Nc1cc(=O)[nH]c(SCC(=O)Nc2cc(Cl)cc(Cl)c2)n1 | inconclusive: 7.31 µM [inhibitor, partial curve] | 
C[C@]12C=CC(=O)C=C1CC[C@@H]1[C@@H]2[C@@H](O)C[C@@]2(C)[C@H]1CC[C@]2(O)C(=O)COC(=O)CCC(=O)O | inconclusive: 0.411 µM [inhibitor, full curve] | 

Remaining list, next part

SMILES	Potency	activity change, negative = inhibition
Cc1cccc(NS(=O)(=O)c2ccc(C3CCCCC3)cc2)n1		inactive: -20.7%
CNC(=S)N/N=C(\C)c1ccc2c(c1)OCCO2	inconclusive: 18.4 µM [inhibitor, single point]	
Cc1ccc(Oc2ccc(-c3nc(N)nc(N)n3)cc2)cc1C	inconclusive: 18.4 µM [inhibitor, partial curve, poor fit]	
CC(=O)[C@H]1CC[C@H]2[C@@H]3C[C@H](C)C4=CC(=O)CC[C@]4(C)[C@H]3[C@@H](O)C[C@]12C	inconclusive: 5.8 µM [inhibitor, partial curve]	
CCC(=O)Nc1nonc1-c1nc2ccccc2n1Cc1cccc2ccccc12	active: 2.91 µM	
COc1ccc(/C(C)=N/Nc2nc3ccccc3nc2C)cc1OC		inactive: -8.71%
O=C(CN1CCCc2ccccc21)N/N=C/c1ccccc1O		inactive: -0.214%
CCOc1ccccc1/C=N/Nc1nc2c(N)ncnc2n1[C@H]1O[C@@H](CO)[C@H](O)[C@@H]1O	inconclusive: 23.1 µM [inhibitor, partial curve]	
COc1ccccc1NC(=O)COc1ccc(-c2nn(C)c(=O)c3ccccc23)cc1	inconclusive: 23.1 µM [inhibitor, partial curve]	
Cc1ccc(-c2ccccc2NC(=O)CS(=O)CC(=O)Nc2ccc(C)c(Cl)c2)o1 (configuration not stated)		inactive: -5.18%
Cc1ccc(-n2cc(CNCCc3ncc(C)[nH]3)c(-c3ccc(F)cc3)n2)cc1		inactive: -19.7%
COc1ccc(S(=O)(=O)N2CCCCC2)cc1NC(=O)c1ccc(OC)c(OC)c1	inconclusive: 7.31 µM [inhibitor, partial curve]	
COc1cc2c(cc1OC)-c1cc(NC3CCCCC3)nc(=O)n1CC2	active: 23.1 µM	
COc1ccc(NCC(=O)n2c(C)c(C)c3ccccc32)cc1	inconclusive: 23.1 µM [inhibitor, partial curve, poor fit]	
Cc1cc(C)nc(SCc2ccc(C(=O)N/N=C/c3cccnc3)cc2)n1		inactive: 31.9%
COc1cccc(/C=C/C(=O)Nc2cc(S(=O)(=O)N3CCOCC3)ccc2OC)c1	inconclusive: 2.06 µM [inhibitor, full curve]	
O=C(COC(=O)Cc1ccc(-c2ccccc2)cc1)NCc1ccccc1		inactive: -6.66%
NC(=S)N/N=C/c1ncc(C(F)(F)F)cc1Cl		inactive: 183%
CC1=Nc2cc(C(=O)NCCCOC(C)C)ccc2Sc2ccc(C)cc21	active: 7.31 µM	
COc1cc2c(cc1OC)C(c1cc(C)ccc1C)CC(=O)N2 (configuration not stated)	inconclusive: 18.4 µM [inhibitor, partial curve]	
N#CC(C(=S)Nc1ccccc1)c1nc2ccccc2[nH]1 (configuration not stated)		inactive: 21.6%
COc1ccc(/C=C/c2ccncc2)cc1OC	inconclusive: 20.6 µM [inhibitor, partial curve]	
CCCCC(=O)O[C@]1(C(=O)CO)CC[C@H]2[C@@H]3CCC4=CC(=O)CC[C@]4(C)[C@H]3[C@@H](O)C[C@@]21C		inactive: -25.2%
CCOc1ccc2nc(NS(=O)(=O)Cc3ccccc3)sc2c1		inactive: 59.6%
